The text below walks through data of PMC7819943, “Rice protein-binding microarrays: a tool to detect cis-acting elements near promoter regions in rice”.

This is one part of the list.

The target in the experiment is T1, OsSMF1 (Oryza sativa, UniProt Q6ZLB0 1-436).
T1 sequence: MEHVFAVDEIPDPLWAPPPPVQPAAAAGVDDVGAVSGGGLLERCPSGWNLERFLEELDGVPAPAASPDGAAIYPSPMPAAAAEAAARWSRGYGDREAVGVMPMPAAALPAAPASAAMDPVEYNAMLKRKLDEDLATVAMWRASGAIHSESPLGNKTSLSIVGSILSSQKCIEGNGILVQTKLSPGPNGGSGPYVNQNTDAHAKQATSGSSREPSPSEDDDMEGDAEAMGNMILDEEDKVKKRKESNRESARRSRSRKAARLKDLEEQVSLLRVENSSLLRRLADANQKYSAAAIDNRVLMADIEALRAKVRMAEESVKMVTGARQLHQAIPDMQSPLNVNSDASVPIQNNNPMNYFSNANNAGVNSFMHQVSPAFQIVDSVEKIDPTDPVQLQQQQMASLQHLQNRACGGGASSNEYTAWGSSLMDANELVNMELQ
Nature of the experiment: protein-binding microarray (RPBM); PBS, 2% BSA, 51.3 ng/ul salmon testes DNA, 50 uM zinc acetate, 200 nM TF, 25 C, 1 h; high values mean tight binding. Conditions: protein: recombinant; tags: N-terminal polyhistidine and DsRed monomer fusion (pET32a); chain copies: 2; label: CyDye5-dUTP incorporated in the synthesized complementary strand; 3' TTTTT single-stranded linker to array surface; dsDNA, one strand shown. Summed up:
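Binding signal is reported as fluorescence intensity per feature (arbitrary units) from an Axon 4000B scanner. Incubation used 200 nM of each Ni–NTA-purified, N-terminally polyhistidine- and DsRed-fused transcription factor from E. coli BL21-CodonPlus on a double-stranded custom Agilent array for 1 h at 25 °C, with 50 µM zinc acetate in the buffer, followed by washing.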
For the sequence “TTGCGTCGTCGGTGGCGTCACTGCCACACCCACCCACCCGCGGAGTCACCTAGTGCAG”, the binding signal is 8080 fluorescence intensity (a.u.). Take “ATCGCTTAAAATTTCGCAAATTAAGGGTGTGTACGTGTGTCGGAGTCACCTAGTGCAG”: the binding signal was 3780 fluorescence intensity (a.u.). With “GTCTAAACACAGTCACCTTTGCTGATTATTGTTATAAGTCCGGAGTCACCTAGTGCAG”, the binding signal is 4060 fluorescence intensity (a.u.). With “GAGGTTCAAGTGGAGTGGTGTGGTGGAGGTGGAGCTGGTGCGGAGTCACCTAGTGCAG”, the binding signal is 3880 fluorescence intensity (a.u.). For “TCCCTAAACTTGTCATGTGTGTCATATAGGTCCTAACCGGCGGAGTCACCTAGTGCAG” the value was 5100 fluorescence intensity (a.u.). The result for “GAGGTCGCCCCTTTTCCCCTCCATACCATCGAGCTCTCCGCGGAGTCACCTAGTGCAG” reads 11500 fluorescence intensity (a.u.); that for “TAGTACTTGCTCTACGAGAGATAGGGTCCATAATCTTCTACGGAGTCACCTAGTGCAG”, 3290 fluorescence intensity (a.u.); that for “CATCTGATCCTCTCCACTTGCATGCACTTTCTGACTGTAGCGGAGTCACCTAGTGCAG”, 3420 fluorescence intensity (a.u.).

As to “GATATGCCTATGTTGAACTTGTGCCCTTCGACAAGCCTCACGGAGTCACCTAGTGCAG”, the binding signal was 3200 fluorescence intensity (a.u.).

Take “TGCCACATACTTATTGATGATGTGTCATGATTGCATGGGACGGAGTCACCTAGTGCAG”: the binding signal is 10400 fluorescence intensity (a.u.). For “ACTTTTCCGTCACATCGTTTTAATTTCTTTAAACTTTTAACGGAGTCACCTAGTGCAG” the value was 4680 fluorescence intensity (a.u.); for “GGTAATCCGCAAGGCCCACGACGACTCCGTGAGGGCTTGTCGGAGTCACCTAGTGCAG”, 3490 fluorescence intensity (a.u.); for “CCCTGGGGACGTTCGCGGGCTATCTCGTTGATAAATTGGGCGGAGTCACCTAGTGCAG”, 28700 fluorescence intensity (a.u.). The result for “CATGAACGTGATCACCAAGGTCTCCCTCAACCACGGCATGCGGAGTCACCTAGTGCAG” reads 3180 fluorescence intensity (a.u.). As for “GTATAGACTATAGATGCAGTACTACACAAGACACGTATGACGGAGTCACCTAGTGCAG”, the binding signal is 4920 fluorescence intensity (a.u.).

As for “AGCCACGTCACGAAAATCGCCCTCTCAGAGGGCGGCGGGCCGGAGTCACCTAGTGCAG”, the binding signal is 17000 fluorescence intensity (a.u.).

For the sequence “AGACGGCAAGTTTCGGCCCATTTATAAAGCCCATATGGGGCGGAGTCACCTAGTGCAG”, the binding signal was 3640 fluorescence intensity (a.u.). As for “CGAGGTCGAACCCAAGATACTCCAGCGAGAAATACTCGGACGGAGTCACCTAGTGCAG”, the binding signal was 4270 fluorescence intensity (a.u.). The result for “AGTATGACCTAGGCAAGCAATTAACCAATTATAACTAGCACGGAGTCACCTAGTGCAG” reads 22400 fluorescence intensity (a.u.); that for “TTGTGAGGACGAATTCTAGGAGTACTTGTGTGCTGCAGCACGGAGTCACCTAGTGCAG”, 11100 fluorescence intensity (a.u.). For “CCCCTTGACACTGCCTTTGATGCTCGGCTCTAGCGGTCTTCGGAGTCACCTAGTGCAG” the value was 3200 fluorescence intensity (a.u.); for “CATTGTTCAGTGAACCAGTGTATAGTTTGGAGTCAGGTGTCGGAGTCACCTAGTGCAG”, 3380 fluorescence intensity (a.u.); for “CTTGCACGTCAACGTTGCCATGCCTTGCCGTTGCTTAACGCGGAGTCACCTAGTGCAG”, 3330 fluorescence intensity (a.u.). As for “GGTCCCACATGTCGGTGGGTCCCACGATATATTTTATATGCGGAGTCACCTAGTGCAG”, the binding signal was 5460 fluorescence intensity (a.u.). For “GAACTCACCGGCGATGAGGGTGACGCGTTGAGGTGCGGCGCGGAGTCACCTAGTGCAG” the value was 3590 fluorescence intensity (a.u.). For “CTCCTCGGCCGGCGCGGCGCCCCATGTACGTGGCTCGACCCGGAGTCACCTAGTGCAG” the value was 3970 fluorescence intensity (a.u.). The result for “AGCGGCAGTAGCAAGGGAGCTAGGCCCCGAAGGAAAACCGCGGAGTCACCTAGTGCAG” reads 46000 fluorescence intensity (a.u.).

For “ACTTGGTTCTTGCTCATCATCTTTCGCTTGCTCGTCAGCTCGGAGTCACCTAGTGCAG”, the binding signal was 3650 fluorescence intensity (a.u.). The result for “ATCGTTATCATATTCACGTTAGGTTGCGTAGAACCTCTTACGGAGTCACCTAGTGCAG” reads 3150 fluorescence intensity (a.u.). The result for “GCCATTCCACATCAGTCCGTGCCGCTCTCTGCCCATTCTCCGGAGTCACCTAGTGCAG” reads 4560 fluorescence intensity (a.u.); that for “TAAATTGTTAAAATTTAGCACACGCTGACTAATCCTCGCTCGGAGTCACCTAGTGCAG”, 3920 fluorescence intensity (a.u.); that for “GCGAACGCGACGCCGTCGTCCGTGGACGCGGCGGTGGCGGCGGAGTCACCTAGTGCAG”, 3460 fluorescence intensity (a.u.). For “AACCACCCGTCATCCCTCGTCGCTCGTCACCCAGCGGCCTCGGAGTCACCTAGTGCAG” the value was 3460 fluorescence intensity (a.u.); for “ACTTTTATTTATCTCTCTCTTCCACATAAGCATTTAGCTTCGGAGTCACCTAGTGCAG”, 6960 fluorescence intensity (a.u.).

For “GGTCTCAAAACGTACCTGACATCATTATACAGCTGACATTCGGAGTCACCTAGTGCAG”, the binding signal is 6320 fluorescence intensity (a.u.).

In the case of “ATTGTGCTTGTATGGTTCTGATTATATGATGCGTATTTTCCGGAGTCACCTAGTGCAG”, the binding signal was 3370 fluorescence intensity (a.u.). For “TTTATCCCAAAATATAACAATTTCTCCAGCAACATTCTCTCGGAGTCACCTAGTGCAG” the value was 19200 fluorescence intensity (a.u.). Turning to “GATTGCCTCTGTCAGTGACGGTTTATGAATCCGTCACCAACGGAGTCACCTAGTGCAG”, the binding signal was 4170 fluorescence intensity (a.u.). The result for “TATGGGCCCACACGTCAGAAAGATAAATAGCGTAGCTTCTCGGAGTCACCTAGTGCAG” reads 5870 fluorescence intensity (a.u.). “ACCGGGTTACCTCTTCCCGACGCTGACATCCATCTCATGGCGGAGTCACCTAGTGCAG”: the binding signal was 3210 fluorescence intensity (a.u.). For “TTTCGTCACCTCGGTACGTGTTCAATATGTTGCGCATATTCGGAGTCACCTAGTGCAG” the value was 3630 fluorescence intensity (a.u.).

As for “ACCCGCGCGCCGGCCGCGTCATCGACGACATCGTGCGTACCGGAGTCACCTAGTGCAG”, the binding signal is 3920 fluorescence intensity (a.u.).
